## Percent effect of library compounds

Sequences of proteins named here, by UniProt entry; tags and fusion partners are left off. Residues count along the entry.
UniProt P9WNZ1, whole entry: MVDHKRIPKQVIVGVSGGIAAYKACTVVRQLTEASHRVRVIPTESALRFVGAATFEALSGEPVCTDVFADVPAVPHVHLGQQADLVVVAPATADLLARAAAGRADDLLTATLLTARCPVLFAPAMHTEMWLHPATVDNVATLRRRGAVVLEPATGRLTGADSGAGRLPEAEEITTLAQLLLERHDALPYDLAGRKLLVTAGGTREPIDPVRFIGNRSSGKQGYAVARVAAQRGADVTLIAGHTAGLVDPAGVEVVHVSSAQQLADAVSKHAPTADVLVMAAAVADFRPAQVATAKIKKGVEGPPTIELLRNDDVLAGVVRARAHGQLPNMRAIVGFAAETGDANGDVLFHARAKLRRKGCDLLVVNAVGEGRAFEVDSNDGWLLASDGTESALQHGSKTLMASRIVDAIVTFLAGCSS
UniProt Q8IDJ8, 1-583: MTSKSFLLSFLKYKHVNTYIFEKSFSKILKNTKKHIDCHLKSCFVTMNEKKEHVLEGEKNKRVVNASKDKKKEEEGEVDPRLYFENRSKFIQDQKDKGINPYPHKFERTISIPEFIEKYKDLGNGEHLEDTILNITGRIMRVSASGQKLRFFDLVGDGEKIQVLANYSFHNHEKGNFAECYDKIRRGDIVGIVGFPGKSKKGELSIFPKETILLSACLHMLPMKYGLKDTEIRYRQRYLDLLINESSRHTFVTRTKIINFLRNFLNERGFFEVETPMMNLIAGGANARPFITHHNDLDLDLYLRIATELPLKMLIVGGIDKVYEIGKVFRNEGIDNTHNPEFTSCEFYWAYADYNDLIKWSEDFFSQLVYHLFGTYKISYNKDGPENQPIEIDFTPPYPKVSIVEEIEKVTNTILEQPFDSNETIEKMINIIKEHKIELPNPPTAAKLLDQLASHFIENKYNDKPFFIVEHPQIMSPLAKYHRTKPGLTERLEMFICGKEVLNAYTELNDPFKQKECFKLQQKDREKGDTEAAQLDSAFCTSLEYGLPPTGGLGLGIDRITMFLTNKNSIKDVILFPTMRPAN
UniProt P9WFT3, whole entry: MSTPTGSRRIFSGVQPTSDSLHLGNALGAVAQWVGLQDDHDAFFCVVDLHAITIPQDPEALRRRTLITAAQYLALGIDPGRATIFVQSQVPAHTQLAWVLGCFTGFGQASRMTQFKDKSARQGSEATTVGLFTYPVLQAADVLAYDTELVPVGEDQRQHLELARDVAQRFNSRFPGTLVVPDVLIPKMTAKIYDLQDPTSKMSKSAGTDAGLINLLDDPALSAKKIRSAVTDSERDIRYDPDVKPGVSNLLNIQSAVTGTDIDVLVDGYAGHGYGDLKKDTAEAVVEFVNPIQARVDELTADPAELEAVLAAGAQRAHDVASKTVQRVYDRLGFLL
UniProt I6X8D2, whole entry: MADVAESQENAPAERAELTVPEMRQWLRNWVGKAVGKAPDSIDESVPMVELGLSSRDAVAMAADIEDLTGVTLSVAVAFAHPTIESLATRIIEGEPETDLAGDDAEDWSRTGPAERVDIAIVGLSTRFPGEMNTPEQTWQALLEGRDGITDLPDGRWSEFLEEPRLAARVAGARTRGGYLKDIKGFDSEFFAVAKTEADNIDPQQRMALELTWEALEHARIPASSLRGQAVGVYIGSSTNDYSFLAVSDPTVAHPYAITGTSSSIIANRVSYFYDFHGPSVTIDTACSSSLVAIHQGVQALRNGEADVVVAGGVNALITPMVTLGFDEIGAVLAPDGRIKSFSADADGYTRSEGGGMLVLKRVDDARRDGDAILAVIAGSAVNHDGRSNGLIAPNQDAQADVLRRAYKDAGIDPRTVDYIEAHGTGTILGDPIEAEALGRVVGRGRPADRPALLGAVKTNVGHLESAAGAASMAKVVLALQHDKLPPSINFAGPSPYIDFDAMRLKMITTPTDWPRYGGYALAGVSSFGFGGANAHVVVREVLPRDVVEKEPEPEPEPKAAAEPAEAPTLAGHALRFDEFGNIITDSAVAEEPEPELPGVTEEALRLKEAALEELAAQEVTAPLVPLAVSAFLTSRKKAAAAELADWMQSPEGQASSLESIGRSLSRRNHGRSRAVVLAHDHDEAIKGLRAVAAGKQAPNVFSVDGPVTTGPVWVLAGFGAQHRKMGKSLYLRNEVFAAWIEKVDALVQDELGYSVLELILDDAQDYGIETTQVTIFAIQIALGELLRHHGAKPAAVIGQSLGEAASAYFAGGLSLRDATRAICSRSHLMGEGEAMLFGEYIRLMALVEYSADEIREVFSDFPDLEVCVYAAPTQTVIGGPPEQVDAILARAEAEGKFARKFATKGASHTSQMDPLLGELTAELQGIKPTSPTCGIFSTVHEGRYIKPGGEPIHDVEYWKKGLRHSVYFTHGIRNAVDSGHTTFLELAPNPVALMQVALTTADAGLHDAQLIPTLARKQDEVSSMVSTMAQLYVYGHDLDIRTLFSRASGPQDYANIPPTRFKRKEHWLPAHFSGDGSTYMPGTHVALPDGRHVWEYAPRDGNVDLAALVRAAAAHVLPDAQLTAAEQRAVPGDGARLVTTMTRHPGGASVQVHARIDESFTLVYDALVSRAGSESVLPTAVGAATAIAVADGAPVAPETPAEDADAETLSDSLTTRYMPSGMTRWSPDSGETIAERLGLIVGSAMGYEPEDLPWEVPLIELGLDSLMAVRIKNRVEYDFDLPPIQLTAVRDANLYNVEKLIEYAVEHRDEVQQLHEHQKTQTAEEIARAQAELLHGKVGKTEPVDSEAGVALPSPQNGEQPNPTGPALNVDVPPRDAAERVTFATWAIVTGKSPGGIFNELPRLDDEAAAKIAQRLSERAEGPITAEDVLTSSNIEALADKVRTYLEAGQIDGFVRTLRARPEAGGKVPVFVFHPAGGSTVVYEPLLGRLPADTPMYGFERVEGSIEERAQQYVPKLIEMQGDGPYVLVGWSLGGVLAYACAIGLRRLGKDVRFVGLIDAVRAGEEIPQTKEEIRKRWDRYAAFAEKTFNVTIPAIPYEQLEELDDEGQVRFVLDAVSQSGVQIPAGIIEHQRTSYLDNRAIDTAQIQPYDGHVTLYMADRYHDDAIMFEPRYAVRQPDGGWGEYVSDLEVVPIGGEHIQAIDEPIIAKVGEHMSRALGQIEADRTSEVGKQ

CoaBC: 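Coenzyme A biosynthesis protein CoaBC, Mycobacterium tuberculosis (UniProt P9WNZ1). Enzyme assay of CoaBC with a phosphate dye (Biomol Green) read at 650 nm. Concentration: 30 µM. Direction is inferred from only a few compounds that gave an IC50; most scored high, so higher reads as stronger inhibition. Most strong results did not repeat in a second test. Of about 67,000 compounds tested this way, about 40 (0.06%) reached 50% or more in at least one test.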
PfKRS1: 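Enzyme assay of the cytosolic lysyl-tRNA synthetase in 384-well plates, read by luminescence. Target: Lysine-tRNA ligase, Plasmodium falciparum 3D7 (UniProt Q8IDJ8). Tested at 30 µM. Direction is inferred from only a few compounds that gave an IC50; most scored high, so higher reads as stronger inhibition. About 69,000 compounds were tested under these conditions; 0.071% (about 49) showed 50% or more at least once.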
Toxoplasma: 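Assay of Toxoplasma gondii numbers, read through their beta-galactosidase reporter with a colour substrate. Tested at 10 µM. The record gives no direction; the compounds picked for IC50 retests had high values, so higher reads as fewer parasites. Of about 67,000 compounds tested this way, about 260 (0.38%) reached 50% or more in at least one test.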
MtTrpRS: 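Tryptophan-tRNA ligase, Mycobacterium tuberculosis (UniProt P9WFT3). Enzyme assay of tryptophanyl-tRNA synthetase; the read-out is not stated. Tested at 10 µM. Higher most likely means stronger inhibition; the record gives no direction and few retests gave an IC50. Of about 65,000 compounds tested this way, about 64 (0.098%) reached 50% or more in at least one test.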
Pks13 thioesterase: 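Polyketide synthase Pks13, Mycobacterium tuberculosis (UniProt I6X8D2). Enzyme assay of the thioesterase domain of polyketide synthase 13; the read-out is not stated. Compounds at 30 µM. Higher reads as stronger inhibition (inferred from which compounds were picked for retests). Size under these conditions: about 67,000 compounds, about 300 of them at 50% or above in at least one test.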

The filed quantity is “Percent Effect” (%). The controls that fix the scale are not given in the record; negative values are as filed. This is an unselected part of the compounds tested. A dash means the value is not listed here; it may have been measured.

| compound | CoaBC | PfKRS1 | Toxoplasma | MtTrpRS | Pks13 thioesterase |
|---|---|---|---|---|---|
| `CN1C[C@@H](N)C[C@H]1C(=O)N1CCC(CCCc2ccccc2)CC1` | -20% | -1.88% | 4.332% | -5.727% | 22.09% |
| `COc1ncnc2c1CCN(C(=O)Cc1cccc(F)c1)CC2` | - | 6.511% | 4.908% | 1.618% | -38.7% |
| `Cc1cc(C(F)(F)F)n2nc(C3CCCN(S(C)(=O)=O)C3)cc2n1` (stereo unspecified) | -7.359% | 1.394% | -10.95% | -4.285% | 8.212% |
| `CN1CCOC(CNC(=O)C2(c3cccc(C(F)(F)F)c3)CCCC2)C1` (stereo unspecified) | -5.396% | 0.6781% | 12.62% | 0.8602% | -27.67% |
| `Cc1nc(CN2CCCC(N(C)Cc3cscn3)C2)no1` (stereo unspecified) | -3.846% | 6.241% | 10.93% | -10.4% | -27.97% |
| `[H][C@@]12CS(=O)(=O)C[C@]1([H])N(C(=O)c1ccnc(N)c1)CCN2CCC` | - | - | 17.77% | - | - |
| `[H][C@@]12CN(C(=O)C3CC=CC3)C[C@]1([H])C(=O)N(CCN(C)C)C2` | - | - | -3.457% | - | - |
| `O=C(O)C(F)(F)F.[H][C@@]12CN(Cc3nccs3)C[C@]1([H])CN(C(N)=O)C2` | - | - | -2.636% | - | - |
| `COc1cc(F)c(CN2CCN(CC(C)C)C(=O)C2C)cc1OC` (stereo unspecified) | -1.474% | 3.494% | -13.04% | -0.5128% | -8.52% |
| `Cc1ccc(F)c2c1N(C(=O)c1ccc(S(C)(=O)=O)cc1)CCC2` | 1.106% | 3.488% | 8.959% | 0.4105% | 13.28% |
| `Cc1ccc(C(=O)N2CCCN(Cc3cscn3)CC2)o1` | 8.355% | -0.447% | 0.4955% | 0.3762% | -11.88% |
| `CCc1nnc(N2C[C@@H](CN(C)CCO)[C@@H](CO)C2)s1` | 6.585% | -1.455% | 1.514% | 4.584% | -26.92% |
| `Cc1cc(C)c2[nH]c(C)c(CC(=O)N(C)CCN(C)C)c2c1.O=C(O)CC(O)(CC(=O)O)C(=O)O` | - | - | 8.076% | - | - |
| `CC(C)Nc1cccc(C(=O)NCC(O)c2ccc(F)cc2F)c1` (stereo unspecified) | 9.127% | 5.655% | 2.774% | -3.888% | -5.43% |
| `CCN(C)C1CCCc2nc(C)sc21` (stereo unspecified) | 3.099% | 2.19% | -3.936% | -0.5202% | -7.483% |
| `O=C(NCC1CCOC1)c1ccc(-c2ccccc2)[nH]c1=O` (stereo unspecified) | -4.605% | 0.7422% | -32.09% | -6.772% | 36.18% |
| `Cc1cc(CN(C)C(=O)c2cc(COc3ccccc3)[nH]n2)n[nH]1` | 0.8589% | 1.34% | -5.619% | -2.714% | 3.925% |
| `COc1cccc(C2CC(=O)Nc3nc(N)sc32)c1OC` (stereo unspecified) | -1.215% | 62.72% | -0.2514% | 9.004% | -19.39% |
| `Cc1cnc2c(S(=O)(=O)NCC3CCN(C4CC4)C3)cccc2c1` (stereo unspecified) | -1.503% | -2.083% | 1.946% | 3.411% | -18.77% |
| `Cc1cnc(CN(C)C2CCN(Cc3ccccc3C#N)C2)o1` (stereo unspecified) | 4.563% | 2.572% | -1.471% | -0.4223% | -8.24% |
| `Cc1nc(N2CCCC2)ncc1-c1cc(O)nc(N2CCN(C)CC2)n1` | -4.388% | -0.5308% | 5.589% | 1.295% | -2.211% |
| `Cc1cc(C(=O)Nc2n[nH]c(C3CC3)n2)c2c(C)nn(C)c2n1` | 7.595% | -1.776% | 5.628% | 13.01% | -16.54% |
| `CCOC(=O)C1(Cc2cccc(OC)c2)CCCN(Cc2ncc[nH]2)C1` (stereo unspecified) | -1.615% | 0.1732% | -14.68% | -0.4341% | -11.51% |
| `Cc1noc(C2CCCCN2C(=O)NC2CCCC2)n1` (stereo unspecified) | 1.484% | 6.326% | 1.257% | -7.945% | -15.48% |
| `Cc1cccc(C2(C(=O)NCC3CN(C)CCO3)CC2)c1` (stereo unspecified) | 1.952% | 6.204% | 16.38% | 2.581% | -27.25% |
| `O=C(Cc1cccc(F)c1F)NS(=O)(=O)c1ccc(Cl)cc1F` | -0.7937% | -1.849% | -0.05359% | 3.177% | -12.67% |
| `c1ccc(OCCCNCCn2cccn2)cc1` | -2.611% | 1.452% | 2.756% | -3.411% | -14.15% |
| `COc1ccc(CN2CCO[C@H]3CN(C4CCCC4)CC[C@H]3C2=O)cc1` | 1.208% | 0.256% | - | -5.818% | -8.013% |
| `CC(=O)Nc1ccc(-c2cn(CCn3c(C)cc(C)nc3=O)nn2)cc1` | 1.08% | 14% | 1.621% | -1.871% | -7.783% |
| `O=C(O)C(F)(F)F.[H][C@@]12CCN(Cc3cccc(F)c3)C[C@]1(C(=O)N1CCOCC1)CCO2` | - | - | 22.22% | - | - |
| `CC(C)C(=O)Nc1cccc(CNC(=O)CSCc2ccccn2)c1` | 2.265% | 1.686% | 2.377% | 1.968% | -8.368% |
| `CC(C)(C)OC(=O)N1CCN(c2nnc(Br)s2)CC1` | -3.913% | 0.3079% | -6.923% | 17.16% | -20.82% |
| `CN(C)CCCNC(=O)CNC(=O)N1CCc2c([nH]c3ccccc23)C1` | 0.1346% | 1.318% | -0.9564% | 8.442% | -39.64% |
| `[H][C@@]12CN(Cc3cccs3)C[C@]1([H])CN(C(=O)c1cnc(C)cn1)C2` | - | - | -13.82% | - | - |
| `NC(=O)[C@H]1CCCN(c2nccc(-c3c[nH]nc3-c3cccnc3)n2)C1` | 0.6024% | 2.434% | 10.34% | - | -0.7019% |
| `O=C(C1CCOC1)N1CCC2(CC1)COC2` (stereo unspecified) | 3.218% | 4.116% | 0.2589% | -2.18% | -23.77% |
| `COCCn1/c(=N\C(=O)CN(C)S(C)(=O)=O)sc2cccc(F)c21` | -1.129% | 1.235% | -2.54% | -1.341% | -6.479% |
| `Cc1ccc(F)cc1S(=O)(=O)Nc1cnc(N2CCCC2)nc1` | 4.622% | 2.909% | -6.197% | 2.744% | -13.75% |
| `O=C(O)C(F)(F)F.O=C(O)C(F)(F)F.O=C1N(c2ccsc2)CCC12CCCN(Cc1ccccn1)C2` (stereo unspecified) | - | - | 20.68% | - | - |
| `COc1ccc(CN(Cc2c[nH]cn2)CC2CCCO2)c(OC)c1.O=C(O)CC(O)(CC(=O)O)C(=O)O` (stereo unspecified) | - | - | -3.211% | - | - |
| `[H][C@]1([C@H](O)c2ccc(NC(=O)C3CC3)cc2)COCC(=O)N1CC(C)C` | - | - | 2.454% | - | - |
| `O=S(=O)(c1ccccc1)N1CCC[C@]2(C[C@@H](OCC3CC3)CO2)C1` | -2.637% | -1.372% | -11.12% | -3.438% | -11.02% |
| `CN1CCN(C(=O)Cc2ccc(F)cc2)Cc2cccnc21` | -3.1% | 3.669% | - | 6.345% | -24.16% |
| `Cc1noc(C)c1CN1C[C@@H](NC(=O)N(C)C)[C@H](C(C)C)C1` | - | 2.979% | 0.1079% | -1.11% | -40.52% |
| `[H][C@]12CCN(Cc3cccc(C)n3)[C@@]1([H])C[C@H](C(=O)N1CCN(C)CC1)O2` | - | - | -19.53% | - | - |
| `[H][C@@]12C[C@H](c3noc(C)n3)O[C@@]1([H])CCN(C(=O)c1cc(C)c(C)s1)C2` | - | - | 0.7836% | - | - |
| `Cc1cnn(CC(C)NCc2cc(=O)n3ccccc3n2)c1` (stereo unspecified) | 2.871% | -0.9984% | 1.016% | -5.534% | -10.86% |
| `CCn1cc(S(=O)(=O)NC(=O)CCc2c[nH]c3ccccc23)cn1` | - | 0.8556% | -0.6483% | 57.48% | -15.99% |
| `CCc1nc(CN(C)C(=O)C2CCC(=O)N(CC3CCCCC3)C2)no1` (stereo unspecified) | 1.799% | 3.136% | 5.681% | -2.183% | -14.66% |
| `Cn1ccnc1CN1C[C@@H](CN2CCC(CO)CC2)[C@@H](CO)C1` | -1.919% | -3.006% | -1.385% | 3.019% | -7.122% |
| `O=C(Cn1ccc2sccc2c1=O)NCc1ccccc1F` | 1.332% | 3.608% | 15.36% | 1.089% | 0.7429% |
| `COC(=O)c1sc2cccc(F)c2c1CNC(=O)C1CC1` | -0.3891% | 5.063% | 2.727% | -7.977% | 1.902% |
| `Cc1csc2c(=O)n(CCN3CCNCC3)cnc12` | -2.195% | 4.732% | 3.029% | 18.68% | 29.66% |
| `Cc1ccc(CN2CC[C@@H](O)[C@@H]2Cc2ccccc2)o1.O=C(O)C(F)(F)F` | - | - | 1.672% | - | - |
| `CCN1CCC(Cn2ccc3ccc(C(=O)OC)cc3c2=O)C1` (stereo unspecified) | 3.739% | -1.63% | -16.46% | -1.812% | 1.094% |
| `OCC1CCCCN1Cc1cc(O)c2cccc(F)c2n1` (stereo unspecified) | 6.88% | -0.5728% | 0.4053% | 0.5228% | -6.137% |
| `Cc1ccc(C(=O)N2CCN(CCCSCC#N)CC2)o1` | -7.097% | -0.6289% | 21.48% | 1.562% | -1.191% |

Measurements from “University of Dundee, Small-Polar-MMV Screening Library” (2021), ChEMBL document CHEMBL3988442.